Test results published in paper PMC12448893.
Results are given in words; binding and its absence hold for the method and conditions named. Binding seen in cells or lysates may run through a third protein. A yes stands for co-enrichment or nearness to the bait. Other partners may have been found.

Amino acid sequences for entries named in this document (tags omitted). A change or cut given only in a name is not applied to a line headed by its entry.
UniProt Q13547: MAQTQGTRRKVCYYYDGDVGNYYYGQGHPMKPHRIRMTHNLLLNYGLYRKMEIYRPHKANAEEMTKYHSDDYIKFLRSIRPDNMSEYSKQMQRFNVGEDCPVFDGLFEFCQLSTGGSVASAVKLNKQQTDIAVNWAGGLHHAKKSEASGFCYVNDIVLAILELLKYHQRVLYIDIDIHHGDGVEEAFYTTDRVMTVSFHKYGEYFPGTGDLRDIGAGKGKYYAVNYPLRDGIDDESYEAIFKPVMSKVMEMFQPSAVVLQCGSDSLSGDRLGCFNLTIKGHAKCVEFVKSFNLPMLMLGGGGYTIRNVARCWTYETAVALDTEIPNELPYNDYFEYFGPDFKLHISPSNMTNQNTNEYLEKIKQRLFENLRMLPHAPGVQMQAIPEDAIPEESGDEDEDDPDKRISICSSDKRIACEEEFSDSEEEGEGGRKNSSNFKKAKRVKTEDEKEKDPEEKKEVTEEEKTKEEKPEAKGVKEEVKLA
UniProt Q80TZ9: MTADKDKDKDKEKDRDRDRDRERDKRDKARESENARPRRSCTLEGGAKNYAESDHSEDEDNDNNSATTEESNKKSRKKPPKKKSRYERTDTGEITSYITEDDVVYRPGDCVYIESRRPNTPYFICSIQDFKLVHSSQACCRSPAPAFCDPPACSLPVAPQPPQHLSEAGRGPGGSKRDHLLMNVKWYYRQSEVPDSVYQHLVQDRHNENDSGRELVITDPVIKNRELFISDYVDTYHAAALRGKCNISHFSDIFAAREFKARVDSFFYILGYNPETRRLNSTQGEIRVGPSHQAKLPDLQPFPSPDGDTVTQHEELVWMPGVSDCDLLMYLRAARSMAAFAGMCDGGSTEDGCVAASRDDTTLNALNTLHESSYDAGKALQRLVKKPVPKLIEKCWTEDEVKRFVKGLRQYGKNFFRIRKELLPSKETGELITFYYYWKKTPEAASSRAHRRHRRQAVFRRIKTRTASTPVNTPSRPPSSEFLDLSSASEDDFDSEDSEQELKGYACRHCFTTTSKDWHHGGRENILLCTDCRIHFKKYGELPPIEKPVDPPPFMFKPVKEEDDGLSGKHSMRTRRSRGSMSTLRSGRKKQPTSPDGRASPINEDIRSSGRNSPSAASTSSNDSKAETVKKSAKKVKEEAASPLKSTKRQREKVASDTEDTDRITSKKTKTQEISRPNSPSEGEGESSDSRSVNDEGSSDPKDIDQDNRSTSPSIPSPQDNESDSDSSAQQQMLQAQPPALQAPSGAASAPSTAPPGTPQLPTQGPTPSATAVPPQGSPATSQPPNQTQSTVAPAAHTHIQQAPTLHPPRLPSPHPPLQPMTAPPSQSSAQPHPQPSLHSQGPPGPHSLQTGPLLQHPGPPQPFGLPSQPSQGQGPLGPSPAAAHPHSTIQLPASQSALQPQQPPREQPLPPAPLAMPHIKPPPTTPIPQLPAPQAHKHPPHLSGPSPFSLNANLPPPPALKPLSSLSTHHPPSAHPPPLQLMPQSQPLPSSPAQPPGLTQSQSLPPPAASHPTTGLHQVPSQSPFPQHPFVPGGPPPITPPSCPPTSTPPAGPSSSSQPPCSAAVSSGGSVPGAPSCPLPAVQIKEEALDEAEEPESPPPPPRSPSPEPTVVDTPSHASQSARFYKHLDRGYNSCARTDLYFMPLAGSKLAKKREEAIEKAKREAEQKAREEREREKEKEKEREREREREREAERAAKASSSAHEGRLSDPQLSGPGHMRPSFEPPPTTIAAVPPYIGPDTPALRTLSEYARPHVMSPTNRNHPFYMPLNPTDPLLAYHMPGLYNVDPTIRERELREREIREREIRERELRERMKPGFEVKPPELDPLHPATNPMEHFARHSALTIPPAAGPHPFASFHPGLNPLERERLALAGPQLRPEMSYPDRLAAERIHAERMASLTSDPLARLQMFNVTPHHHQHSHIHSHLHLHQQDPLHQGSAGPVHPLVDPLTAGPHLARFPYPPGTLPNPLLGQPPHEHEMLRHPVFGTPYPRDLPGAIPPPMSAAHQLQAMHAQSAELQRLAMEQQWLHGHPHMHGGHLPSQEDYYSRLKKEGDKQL
UniProt Q8C796: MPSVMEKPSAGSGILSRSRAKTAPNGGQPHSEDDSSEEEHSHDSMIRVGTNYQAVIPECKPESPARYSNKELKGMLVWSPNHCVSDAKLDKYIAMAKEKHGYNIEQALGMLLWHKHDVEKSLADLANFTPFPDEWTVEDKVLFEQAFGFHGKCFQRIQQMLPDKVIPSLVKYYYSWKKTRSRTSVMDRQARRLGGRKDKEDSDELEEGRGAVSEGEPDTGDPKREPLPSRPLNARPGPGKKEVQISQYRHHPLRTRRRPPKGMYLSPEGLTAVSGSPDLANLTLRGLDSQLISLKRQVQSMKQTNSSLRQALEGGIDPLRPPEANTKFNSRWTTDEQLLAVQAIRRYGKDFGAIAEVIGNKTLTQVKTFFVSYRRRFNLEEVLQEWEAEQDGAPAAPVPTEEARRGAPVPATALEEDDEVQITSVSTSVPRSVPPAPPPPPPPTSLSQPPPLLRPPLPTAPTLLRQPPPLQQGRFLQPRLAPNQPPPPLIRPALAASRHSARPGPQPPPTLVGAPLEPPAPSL

B1: MIER2 (endogenous, mouse ESCs) (protein, UniProt Q3U3N0 1-541)
chain: MAEASSLERQSPRVASCLVHSLCPREPSLQTTAVVSMGSADHQFNLAELLTQNYNLQEGCAEAPQCPDKPEEELDKDFIDQSSDMPLDELLALYGYESSDPISEQESEGGDTAPALPDMTLDKEQIAKDLLSGEEEEETQSSADDLTPSVTSHEASDLFHNQSGSRFLAGDNGPGSSASSDTEEDALPANKCKKEIMVGPQFQADLNILHLNRHCDKIYENEDQLLWSPSVLPEREVEEFLYRAVKRRWQEMAGPQIPEGEVVKDSEQALYELVKCNFNVEEALRRLRFNVKVIRDGLCAWSEEECRNFEHGFRVHGKNFHLIQANKVRTRSVGECVEYYYLWKKSERYDYFAQQTRLGRRKFVSSGTTDTEQDLDGLDPDGHARLHSEAGVPVEPLNVDIEAGGLDQPGVGSDDLPSSEPGPRPFQQLDEPPAVPSLQQPTSLAASAELPPAAAAAPEPGTSPRLPVDLALPEELPLVSSPVALSEDTAEPMAPAQVALSVTEFGLIGIGDVNPFLTGHPACPTSTLHSEPLSQCNVMTC
B2: MIER3 (endogenous, mouse ESCs) (protein, UniProt Q3UHF3 1-551)
chain: MAEASFGSSSPVGSLSSEDHDFDPTAEMLVHDYDDERTLEEEELMDDGKNFSSEIEDLEKEGNMPLEDLLAFYGYESTIPAVANSSANSSPSELADELPDMTLDKEEIAKDLLSGDDEETQSSADDLTPSVTSHETSEFFPRPLRSNTTCDGDKESEIEDVETDSGNSPEDLRREIMIGLEYQAEIPPYLGEYNGDDEKAYENEDQLLWHPGVLLESKVKEYLVETSLRTGNEKVLDRISSGTHTRDNEQALYELLKCNHNIKEAIERYCCNGKASQEGMTAWTEEECRSFEHALMLHGKDFHLIQKDKVRSRTVAECVAFYYMWKKSERYDYFAQQTKFGKKRYNHHPGVTDYMDRLVDETESLGGTVSSSALTCNRPEPVPDQPLNILSSFTASDLTALTNSVATVCNPTAVNCLDDSFPPLANTPRGHVNHVPVVTEELLTLPSNGESDCFNLFETGFYHSELNPMCSEESERPAKRLKMGIAVPESFMNEVSVNNLGVDFENHTHHITSAKMAVSVADFGSLSANETNGFINAHSLHQHQHAALHSE
B3: ARID4B (endogenous, mouse ESCs) (protein, UniProt A2CG63 1-1314)
chain: MKALDEPPYLTVGTDVSAKYRGAFCEAKIKTAKRLVKVKVTFRHDSSTVEVQDDHIKGPLKVGAIVEVKNLDGAYQEAVINKLTDASWYTVVFDDGDEKTLRRSSLCLKGERHFAESETLDQLPLTNPEHFGTPVIGKKTNRGRRSNHIPEEESSSSSSDDDEEERKQTDELLGKVVCVDYVSLEKKKAMWFPALVVCPDCSDEIAVKKDNILVRSFKDGKFTSVPRKDVHEITSDTVPKPDAVLKQAFDQALEFHKSRAIPANWKTELKEDSSSSEAEEEEEEEDDEKEKEDNSSEEEEEIEPFPEERENFLQQLYKFMEDRGTPINKRPVLGYRNLNLFKLFRLVHKLGGFDNIESGAVWKQVYQDLGIPVLNSAAGYNVKCAYKKYLYGFEEYCRSANIDFQMALPEKVLNKPCKDCENKEVKVKEESETEIKEVNVEDSKNVMPKEETPAEDESERKENIKPSLGSKKSLLECIPAQSDEEKEAHITKLEENENLEDKDGGRARTEEAFSTEVDGEEEQARSGDETNKEEDEDDEEIEEEEEEDEEEDEDEDDDDNNEEEEFECYPPGMKVQVRYGRGKNQKMYEASIKDSDVEGGEALYLVHYCGWNVRYDEWIKADKIVRPADKNVPKIKHRKKIKNKLDKEKDRDEKYSPKNCKLRRLSKSPFQSNPSPEMVSKLDLADAKNSDTAHIKSIEITSILNGLQASESSAEDSEQEDERCTQDVDNIGKDESKVEHSTHSRNELISKEEQSSPSLLEENKVHTDLVIAKTVSKSPERLRKDMEAISEDTDFEEEDEITKKRKDVKKDTTDKALKPQTKRGKRRYCSADECLQTGSPGKKEDRTKSKEPLCTENSSNSSSDEDEEEKSKAKMTPTKKYNGLEEKRKSLRTTSFYSGFSEVAEKRIKLLNNSDERLQNNRAKDRKDVWSSIQGQWPKKTLKELFSDSDTEAAASPPHPAPDEGAVEESLQTVAEEESCSPIMELEKPLPASVDNKPIEEKPLEVSDRKTEFPSSGSNSVLNTPPTTPESPSSVTITEASQQQSSVTVSVPLPPNQEEVRSIKSETDSTIEVDSVVGELQDLQSEGNSSPAGFDASVSSSSSNQPEPDNPEKACTGQKRVKDTQGVGSSSKKQKRSHKATVVNNKKKGKGTNSSDSEELSAGESVTKTQTIKSVPTGMKTHNSKSPARVQSPGKGGRNGDKDPDLKEPSNRLPKVYKWSFQTSDLENMTSAERISILQEKLQEIRKHYLSLKSEVASIDRRRKRLKKKERESAATSSSSSSPSSSSITAAVMLTLAEPSMSSASQNGMSVECR
B4: EMSY (endogenous, mouse ESCs) (protein, UniProt Q8BMB0 1-1264)
chain: MPVVWPTLLDLSRDECKRILRKLELEAYAGVISALRAQGDLTKEKKDLLGELSKVLSISTERHRAEVRRAVNDERLTTIAHKMNLSLYLGERPSYSMSGPNSSSEWSIEGRRLVPLMPRLVPQTAFTVTANAVANAAVQHNASLPVPAETASKDGVSCSDEDEKPRKRRRTNSSSSSPVVLKEVPKAVVPVSKTITVPVSGSPKMSNIMQSIANSLPPHMSPVKITFTKPSTQTTNTTTQKVIIVTTSPSSTFVPNILSKSHNYAAVTKLVPTSVIASTTQKPPVVITASQASLVTSSSNGNSSSTSSPISSTVAVTTVVSSTPSVVMSTVAQGVSTSAIKVASTRLPSPKSLVSGPTQILAQFPKQHQQSPKQQLQQVQQQTQQPVAQPSSVSQQQQPQQSALPPGIKPTIQIKQESGVKIITQQVQPSKILPKPVTATLPTSSNSPIMVVSSNGAIMTTKLVTTPTGTQATYTRPTVSPSLGRVATTPGAATYVKTTSGSIITVVPKSLATLGGKIISSNIVSGTTTKITTIPMTSKPNVIVVQKTTGKGTTIQGLPGKNVVTTLLNAGGEKTLQTVPAGAKPAIITATRPITKMIVTQPKGIGSAVQPAAKIIPTKIVYGQQGKTQVLIKPKPVTFQATVVSEQTRQLVTETLQQASRVADASNSSAQEGKEEPQGYTDSSSSSTESSQSSQDSQPVVHVIASRRQDWSEHEIAMETSPTIIYQDVSSESQSATSTIKALLELQQTTVKEKLESKPRQPTIDLSQMAVPIQMTQEKRHSPESPSIAVVESELVAEYITTVSHRSQPQQPSQPQRTLLQHVAQSQTATQTSVVVKSIPASSPGAITHIMQQALSSHTAFTKHSEELGTEEGEVEEMDTLDPQTGLFYRSALTQSQSTKQQKLSQPQLEQTQLQVKTLQCFQTKQKQTIHLQADQLQHKLTQMPQLSIRHQKLNPLQQEQAQPKPDAQHTQHTVVAKDRQLPTLMAQPPQTVVQVLAVKTTQQLPKLQQAPNQPKIYVQPQTPQSQMALPSSEKQPASQVEQPIITQGSSVTKITFEGRQPPTVTKITGGSSVPKLTSPVTSISPIQASEKTAVSDILQMSLMEAQIDTNVEHMVVDPPKKALATNVLTGEAGALPSTHVVVAGMTKCRESCSSPSAVGPPLTTRKIEAAGVPTTGQFMRIQNVGQKKAEESPTEIIIQAIPQYAIPCHSSSNVVVEPSGLLELNNFTSQQLDDDETAMEQDIDSSTEDGTEPSPSQSAVERS
B5: O-GlcNAc transferase (OGT) (endogenous, mouse ESCs) (protein, UniProt Q8CGY8 1-1046)
chain: MASSVGNVADSTEPTKRMLSFQGLAELAHREYQAGDFEAAERHCMQLWRQEPDNTGVLLLLSSIHFQCRRLDRSAHFSTLAIKQNPLLAEAYSNLGNVYKERGQLQEAIEHYRHALRLKPDFIDGYINLAAALVAAGDMEGAVQAYVSALQYNPDLYCVRSDLGNLLKALGRLEEAKACYLKAIETQPNFAVAWSNLGCVFNAQGEIWLAIHHFEKAVTLDPNFLDAYINLGNVLKEARIFDRAVAAYLRALSLSPNHAVVHGNLACVYYEQGLIDLAIDTYRRAIELQPHFPDAYCNLANALKEKGSVAEAEDCYNTALRLCPTHADSLNNLANIKREQGNIEEAVRLYRKALEVFPEFAAAHSNLASVLQQQGKLQEALMHYKEAIRISPTFADAYSNMGNTLKEMQDVQGALQCYTRAIQINPAFADAHSNLASIHKDSGNIPEAIASYRTALKLKPDFPDAYCNLAHCLQIVCDWTDYDERMKKLVSIVAEQLEKNRLPSVHPHHSMLYPLSHGFRKAIAERHGNLCLDKINVLHKPPYEHPKDLKLSDGRLRVGYVSSDFGNHPTSHLMQSIPGMHNPDKFEVFCYALSPDDGTNFRVKVMAEANHFIDLSQIPCNGKAADRIHQDGIHILVNMNGYTKGARNELFALRPAPIQAMWLGYPGTSGALFMDYIITDQETSPAEVAEQYSEKLAYMPHTFFIGDHANMFPHLKKKAVIDFKSNGHIYDNRIVLNGIDLKAFLDSLPDVKIVKMKCPDGGDNPDSSNTALNMPVIPMNTIAEAVIEMINRGQIQITINGFSISNGLATTQINNKAATGEEVPRTIIVTTRSQYGLPEDAIVYCNFNQLYKIDPSTLQMWANILKRVPNSVLWLLRFPAVGEPNIQQYAQNMGLPQNRIIFSPVAPKEEHVRRGQLADVCLDTPLCNGHTTGMDVLWAGTPMVTMPGETLASRVAASQLTCLGCLELIAKSRQEYEDIAVKLGTDLEYLKKIRGKVWKQRISSPLFNTKQYTMELERLYLQMWEHYAAGNKPDHMIKPVEVTESA

target: HDAC1–E63R (Flag), stably expressed in Hdac1/2 double knockout mouse ESCs (UniProt Q13547); assay: affinity purification with mass spectrometry; Flag IP (anti-Flag on Protein G Dynabeads) of HDAC1-Flag WT, Y48E or E63R from extracts of Hdac1/2 DKO mouse ESCs 5 days after OHT; coIP buffer 250 mM NaCl, 20 mM Tris-HCl pH 7.5, 0.5% IGEPAL, 1 mM EDTA; 4°C overnight; LC-MS/MS; control DKO cells lacking a Flag epitope

binding | Molecule
binds | RERE (endogenous, mouse ESCs) (from UniProt Q80TZ9 1-1558)
binds weakly | RCOR2 (endogenous, mouse ESCs) (from UniProt Q8C796 1-523)
binds | B1
binds | B2

target: HDAC1-Flag (wild type), stably expressed in Hdac1/2 double knockout mouse ESCs (UniProt Q13547); assay: as above

binding | Molecule
binds | RERE (endogenous, mouse ESCs) (from UniProt Q80TZ9 1-1558)
binds | RCOR2 (endogenous, mouse ESCs) (from UniProt Q8C796 1-523)
binds | B3
binds | B1
binds | B2
binds | B4
binds | B5
